Reference: article PMC6235892

Protein sequences, listed by entry. Tags and fused reporters are not part of them. Lines headed by an entry give the natural chain unless they say otherwise; changes in a name come on top.
UniProt P10417: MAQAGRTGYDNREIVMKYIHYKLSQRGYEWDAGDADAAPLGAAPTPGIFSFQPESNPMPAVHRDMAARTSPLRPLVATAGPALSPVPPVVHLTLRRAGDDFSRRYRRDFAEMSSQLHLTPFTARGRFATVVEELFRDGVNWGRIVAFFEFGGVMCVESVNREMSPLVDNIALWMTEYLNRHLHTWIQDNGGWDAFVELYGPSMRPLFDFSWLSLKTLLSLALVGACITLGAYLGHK
UniProt P06537: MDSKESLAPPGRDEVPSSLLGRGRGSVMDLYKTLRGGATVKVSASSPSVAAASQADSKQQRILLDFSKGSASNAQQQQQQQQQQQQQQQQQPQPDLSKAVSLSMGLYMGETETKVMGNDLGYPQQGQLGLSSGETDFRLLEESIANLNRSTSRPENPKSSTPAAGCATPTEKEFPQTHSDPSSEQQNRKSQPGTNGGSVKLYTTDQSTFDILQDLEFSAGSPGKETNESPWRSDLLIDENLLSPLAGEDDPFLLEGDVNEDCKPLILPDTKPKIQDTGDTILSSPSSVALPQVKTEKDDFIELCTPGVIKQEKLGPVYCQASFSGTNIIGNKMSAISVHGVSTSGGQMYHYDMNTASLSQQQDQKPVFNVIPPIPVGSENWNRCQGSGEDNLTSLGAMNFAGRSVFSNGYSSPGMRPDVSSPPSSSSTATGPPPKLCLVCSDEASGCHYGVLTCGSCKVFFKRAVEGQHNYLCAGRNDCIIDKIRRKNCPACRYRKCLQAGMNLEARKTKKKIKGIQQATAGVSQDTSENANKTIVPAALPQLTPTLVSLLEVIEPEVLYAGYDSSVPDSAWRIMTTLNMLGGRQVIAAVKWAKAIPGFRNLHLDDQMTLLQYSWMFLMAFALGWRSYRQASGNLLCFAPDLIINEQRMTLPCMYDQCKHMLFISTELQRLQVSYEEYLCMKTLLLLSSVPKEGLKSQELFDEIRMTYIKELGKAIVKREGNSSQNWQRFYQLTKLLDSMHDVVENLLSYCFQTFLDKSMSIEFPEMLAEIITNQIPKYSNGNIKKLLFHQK
UniProt Q60932: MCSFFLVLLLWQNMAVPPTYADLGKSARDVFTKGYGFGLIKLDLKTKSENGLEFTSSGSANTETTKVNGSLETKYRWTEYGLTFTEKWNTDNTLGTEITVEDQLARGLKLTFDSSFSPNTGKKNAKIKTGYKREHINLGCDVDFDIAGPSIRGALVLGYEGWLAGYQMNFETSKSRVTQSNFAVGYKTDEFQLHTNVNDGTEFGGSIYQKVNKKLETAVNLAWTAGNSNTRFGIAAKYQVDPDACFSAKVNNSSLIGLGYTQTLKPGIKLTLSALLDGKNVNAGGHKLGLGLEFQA

Key:
[1] = target: Bcl-2, mouse (mouse (endogenous in hippocampus)) (UniProt P10417); assay: co-IP; lysed hippocampus of male ICR mice exposed to vehicle or corticosterone (10 mg/kg), in one panel rapamycin (8 mg/kg) before; endogenous proteins
[2] = target: glucocorticoid receptor (GR), mouse (mouse (endogenous in hippocampus)) (UniProt P06537); assay: as above

- binding [1]: binds
- binding [2]: binds
Substance: voltage-dependent anion-selective channel 1 (VDAC1), mouse (from UniProt Q60932)

These are yes or no findings as the source states them, for the method shown. In cells and extracts the contact can be indirect. Binding can be weak; no strength is given.
